Source: PubChem BioAssay AID602196 (INSERM, 2012)

Test: 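Knock-downs that protect lung cancer cells from cisplatin or sensitise them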
System: human A549 lung cancer cells
Knock-down reagent: siRNA pair against human genes
Time to read-out: 48 h transfection before cisplatin; time from cisplatin to read-out not stated
Treatment: cisplatin at a dose killing half of control-siRNA cells; exact dose and duration not given
Detection: 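Shift in cisplatin death relative to control siRNA, from -50 (all cells die) to +50 (no cells die); siRNAs harmful on their own scored 0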
Scale: two-siRNA summed score (-2 to +2): higher = both siRNAs protect from cisplatin killing; -2 means both sensitise
Rule for the call: 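Each siRNA scores 0 if harmful alone by LDH or WST-1, otherwise +1 if it reduces and -1 if it increases cisplatin killing; a gene is active when both siRNAs agree (sum +2 or -2)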
Calls: active = both siRNAs shift cisplatin killing the same way; inactive = no consistent shift, or siRNA harmful alone
The whole screen tested about 23,000 reagents; below is a part drawn at random. 455 of all reagents (2%) count as active. 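Active includes both protection and sensitisation; some change values fall well beyond the stated -50 to +50 range.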 Not all columns of the deposit are shown. Not stated in the record: the amount of reagent.

The opening 4 records, ahead of the listing:
S1PR1 (sphingosine-1-phosphate receptor 1) | two-siRNA summed score (-2 to +2) = 0; call = inactive
MYF5 (myogenic factor 5) | two-siRNA summed score (-2 to +2) = 0; call = inactive
SDAD1 (SDA1 domain containing 1) | two-siRNA summed score (-2 to +2) = 0; call = inactive
LOC440100 | two-siRNA summed score (-2 to +2) = 1; call = inactive

The list itself, from the start:
S1PR1 (sphingosine-1-phosphate receptor 1) | two-siRNA summed score (-2 to +2) = 0; call = inactive
MYF5 (myogenic factor 5) | two-siRNA summed score (-2 to +2) = 0; call = inactive
SDAD1 (SDA1 domain containing 1) | two-siRNA summed score (-2 to +2) = 0; call = inactive
LOC440100 | two-siRNA summed score (-2 to +2) = 1; call = inactive
ZIC1 (Zic family zinc finger 1) | two-siRNA summed score (-2 to +2) = 0; call = inactive
BFAR (bifunctional apoptosis regulator) | two-siRNA summed score (-2 to +2) = 0; call = inactive
PLA2G2F (phospholipase A2 group IIF) | two-siRNA summed score (-2 to +2) = 0; call = inactive
PGAM2 (phosphoglycerate mutase 2) | two-siRNA summed score (-2 to +2) = 0; call = inactive
PALD1 (phosphatase domain containing paladin 1) | two-siRNA summed score (-2 to +2) = 0; call = inactive
IMPA1 (inositol monophosphatase 1) | two-siRNA summed score (-2 to +2) = 0; call = inactive
FER1L6-AS2 (FER1L6 antisense RNA 2) | two-siRNA summed score (-2 to +2) = 0; call = inactive
DBF4 (DBF4-CDC7 kinase regulatory subunit) | two-siRNA summed score (-2 to +2) = 0; call = inactive
FLJ13072 | two-siRNA summed score (-2 to +2) = 1; call = inactive
CCDC74A (coiled-coil domain containing 74A) | two-siRNA summed score (-2 to +2) = 0; call = inactive
SYPL2 (synaptophysin like 2) | two-siRNA summed score (-2 to +2) = 0; call = inactive
FABP6 (fatty acid binding protein 6) | two-siRNA summed score (-2 to +2) = -1; call = inactive
CAT (catalase) | two-siRNA summed score (-2 to +2) = 0; call = inactive
RPGRIP1 (RPGR interacting protein 1) | two-siRNA summed score (-2 to +2) = -1; call = inactive
ARF6 (ARF GTPase 6) | two-siRNA summed score (-2 to +2) = 0; call = inactive
TMUB1 (transmembrane and ubiquitin like domain containing 1) | two-siRNA summed score (-2 to +2) = 0; call = inactive
ACTRT3 (actin related protein T3) | two-siRNA summed score (-2 to +2) = 0; call = inactive
LOC389321 | two-siRNA summed score (-2 to +2) = 0; call = inactive
KRTAP9-3 (keratin associated protein 9-3) | two-siRNA summed score (-2 to +2) = 0; call = inactive
PLX-4 | two-siRNA summed score (-2 to +2) = -1; call = inactive
AKR1C1 (aldo-keto reductase family 1 member C1) | two-siRNA summed score (-2 to +2) = 0; call = inactive
ABCC5 (ATP binding cassette subfamily C member 5) | two-siRNA summed score (-2 to +2) = 0; call = inactive
IQGAP1 (IQ motif containing GTPase activating protein 1) | two-siRNA summed score (-2 to +2) = 0; call = inactive
CDCP1 (CUB domain containing protein 1) | two-siRNA summed score (-2 to +2) = 1; call = inactive
AIDA (axin interactor, dorsalization associated) | two-siRNA summed score (-2 to +2) = 0; call = inactive
LOC440908 | two-siRNA summed score (-2 to +2) = 0; call = inactive
TMEM214 (transmembrane protein 214) | two-siRNA summed score (-2 to +2) = 0; call = inactive
VPS33B (VPS33B late endosome and lysosome associated) | two-siRNA summed score (-2 to +2) = 0; call = inactive
SLC16A6 | two-siRNA summed score (-2 to +2) = 0; call = inactive
LOC390919 | two-siRNA summed score (-2 to +2) = 0; call = inactive
UBE2V2 (ubiquitin conjugating enzyme E2 V2) | two-siRNA summed score (-2 to +2) = 0; call = inactive
LPL (lipoprotein lipase) | two-siRNA summed score (-2 to +2) = -1; call = inactive
PKIG (cAMP-dependent protein kinase inhibitor gamma) | two-siRNA summed score (-2 to +2) = 1; call = inactive
SNRPEP2 (SNRPE pseudogene 2) | two-siRNA summed score (-2 to +2) = 0; call = inactive
MYNN (myoneurin) | two-siRNA summed score (-2 to +2) = 0; call = inactive
UHRF1 (ubiquitin like with PHD and ring finger domains 1) | two-siRNA summed score (-2 to +2) = 0; call = inactive
